Laboratory results published in patent US8044035B2, “Pharmaceutical compositions of pyrimidine-2,4,6-triones” (priority 2004, dated 2011).
At least one structure is not confirmed: it was looked up by name or label, or the drawing left a doubt.

What was measured:
[1] = system: allergen-induced airway inflammation and bronchial hyperresponsiveness in a mouse model of asthma; test: Mouse model of asthma, inhalation, short exposure challenge; conditions: aerosol, short-term exposure; Compound I 0.03 and 0.3 mg/ml, fluticasone 1 mg/ml; vs placebo (PBS), p<0.0001
[2] = system: allergen-induced airway inflammation in a mouse model of asthma; test: Mouse model of asthma, inhalation, long-term exposure challenge (11 weeks); conditions: aerosol, long term (11 weeks) allergen exposure

SMILES: C[C@@H]1C[C@H]2[C@@H]3C[C@H](F)C4=CC(=O)C=C[C@]4(C)[C@@]3(F)[C@@H](O)C[C@]2(C)[C@@]1(O)C(=O)SCF [fluticasone]
- Eosinophilic inflammation in BAL [1]: significant decrease
- Peribronchial inflammation score ([2]; p<0.0001): significantly decreased
- BAL eosinophilia ([2]; p<0.001): significantly decreased
- Tissue eosinophil infiltration score ([2]; p<0.01): decreased
